Measured values: publication PMC11059408, “Atypical heat shock transcription factor HSF5 is critical for male meiotic prophase under non-stress conditions” (Nature Communications, 2023)
No constants are given. Whether binding was seen depends on the method and setting.

Columns and labels:
[1] = target: HSF5 fragment (aa 1-209) containing DNA binding domain (mouse) (UniProt Q5ND04); experiment: SEC-MALS; room temperature (25 °C); PROTEIN KW-803 column; 25 mM HEPES/KOH pH 7.2, 150 mM KCl; about 100 μL injected at 1.0 mL/min; both purified
[2] = target: HSF5 fragment (aa 1-209) containing DNA binding domain (mouse) (UniProt Q5ND04); experiment: SEC-MALS; after heat treatment at 42 °C for 30 min; 100 μL of MBP-full length HSF5 (12.6 μM) or HSF5-DBD (26.6 μM) injected; PROTEIN KW-803 column; 25 mM HEPES/KOH pH 7.2, 150 mM KCl; both purified

binding [1]: no binding
binding [2]: no binding (tested: 26.6 μM injected)
B1: HSF5 fragment (aa 1-209) containing DNA binding domain (domain or fragment, UniProt Q5ND04 1-209)
chain: MEEALLSTPINPNNFPAKLWRLVNSPRYRSIRWDGRGEGLLIDQPLFEAELLSPPGPGAGGAGGAGSSGGGGGSGVGAAGAEPELFKTTNFTSFIRQLNLYGFRKVVLGGPGAAGPGPGPGAGGPAGDGPLHHFHSPHFRRDQPQLLVHLKRLTSANKAKLAAGLEVPCRPPNRFQRLLITSASASASASTSPLQHQDPPPQPAGPRPE
